Measured values from doi:10.1101/2020.12.17.423307.

Legend:
[1] = molecular target: TRAPPC11 (Drosophila melanogaster); test: cross-linking
[2] = molecular target: TRAPPC11 (Drosophila melanogaster); test: co-purification of co-expressed subunits
[3] = molecular target: TRAPPC11 (Drosophila melanogaster); test: cryo-EM structure
[4] = molecular target: TRAPPC11 (Drosophila melanogaster); test: SEC-MALS + other: interferometric scattering microscopy

B1: TRAPPC13 (protein, UniProt Q95TN1 1-438)
chain: MEMVEPDAHLVALKVMRLMRPTLVGLGPVVTCEPTDLVQRFSSSQESDGMSGACAETLAAGQVLLLPQSFGSIYLGETFASYICVHNTTPNPVECVTVKADLQSNTSRINLSMHENAKSPVVLPPGGTIDDVIRYEVKEIGTHILVCEVNYSTPAGYAQSLRKFFKFQVLKPLDVKTKFYNAEIDEIYLEAQIQNVTTSPFCLEKVELDGSEDYSVTPLNTLPNGESVFTVKHMLQPNNSCQFLYCIKPKGDIAKNVDTLRQFNNVGKLDIVWRSNLGEKGRLQTSQLQRLPFECKTLRLEVLDAKNTIKIGTIFTFNCRVTNTSEHPMKLNVRLAAKFSPDSQYTGCADFMLNLLQSGESAEFPLSVCPSKLGLVKITPLVLTNTLQNEQFTIENVVDVFVVNSDYDNDTTTHQNKLIRYESAASCLTQKQVQLQVV
binding [1]: binds
binding [2]: binds
binding [3]: binds

B2: TRAPPC2 (protein, UniProt Q9VUZ1 1-139)
chain: MSTYYFVIVGQNDNPIYEKEFSTVNKELRKEDHRHLTQFIAHAALDLVDEHKWKTANMQLKSIDRFNQWFVSAFITASQIRFIIVHDNKNDEGIKNFFNEMYDTYIKNSMNAFYRINTPIKSPMFEKKSEIFGRKYLLS
binding [4]: binds

These are yes or no findings as the source states them, for the method shown. Binding can be weak; no strength is given. For some of these results: Binding seen in cells or lysates may run through a third protein.
